Source: PubChem BioAssay AID652272 (Drosophila RNAi Screening Center, 2013)
Aim: 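Genes whose knock-down decreases or increases Hedgehog reporter output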 (primary screen). System: Drosophila clone 8 (Cl8) cells. Reagent: long dsRNA against Drosophila genes. Measured: 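Firefly light from a Hedgehog-responsive ptc promoter reporter and Renilla reference light, both read on a plate reader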. Reading the numbers: firefly Hh reporter signal: higher = more ptc reporter light; Renilla reference signal: higher = more Renilla control light. Call rule: 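Hit when the z-score averaged over two replicates is under -2 or over +3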. Calls: active = hit: reporter lowered or raised; inactive = not a hit.
The deposit covers about 21,000 reagents; shown is an unselected part of those with a known target gene and a result. Of all reagents, 503 (2.4%) got an active call. 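Raw plate light values, not normalised; calls rest on replicate z-scores that were not deposited; hits include reporter decreases as well as increases.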 Names joined by + are all predicted targets of the reagent. Reagent sequences are not shown. The record does not give: the amount of reagent, the time to read-out.

no.	gene	dsRNA	firefly Hh reporter signal, replicate 1	firefly Hh reporter signal, replicate 2	firefly Hh reporter signal, replicate 3	Renilla reference signal, replicate 1	Renilla reference signal, replicate 2	call
1	CG32276	DRSC08027	1.24e5	2.66e5		3975	10310	inactive
2	CG42713	DRSC01050	6.22e5	2.16e5		28976	8315	inactive
3	Npc2g	DRSC14296	1.12e5	1.46e5		3747	8756	inactive
4	MME1	DRSC02714	75651	78874		3301	3356	inactive
5	sro	DRSC14469	71795	4.30e5	1.01e5	2192	2920	inactive
6	CG12194	DRSC00345	1.05e5	73812		2768	5437	inactive
7	Usp8	DRSC15876	1.23e5	1.26e5		5078	5426	inactive
8	CG7408	DRSC10841	87420			3348	2560	inactive
9	CG7841	DRSC10922	1.05e5			4624	2736	inactive
10	NAAT1	DRSC18300	54588	1.67e5		1821	7303	inactive
11	CG7386	DRSC10832	64652	54423		6258	4394	inactive
12	CG14086	DRSC10090	1.16e5	1.17e5		4545	3024	inactive
13	PH4alphaNE2	DRSC16544	58729	89168		2080	2273	inactive
14	e	DRSC16936	88200	79069		3379	3057	inactive
15	CG5984	DRSC15930	87763	1.08e5		2982	3574	inactive
16	Ugt37E1	DRSC02248	1.08e5	59968		2924	6153	inactive
17	CG32548	DRSC19627	90162	3.30e5		1560	11590	inactive
18	CG32548	DRSC19982	1.10e5	79232		2736	2114	inactive
19	CG17646	DRSC00507	1.47e5	1.22e5		5873	4869	inactive
20	CG43439 + CG32388	DRSC08861	1.34e5	2.07e5		3448	7233	inactive
21	CG7950 + Rpp14a	DRSC16353	64060	43859		1691	1776	inactive
22	CG13151	DRSC06276	80217	56688		1942	4108	inactive
23	CG42633	DRSC16061	74211	94268		1144	2564	inactive
24	Mnt	DRSC17894	1.03e5	80562		2386	2458	inactive
25	Mnt	DRSC18480	59549	2.15e5		1842	9365	inactive
26	Mt2	DRSC03374	77525	52395		2040	4699	inactive
27	CG5645	DRSC10532	1.31e5	80259		4978	2964	inactive
28	Gbp3	DRSC15206	5.50e5	73508		28490	2520	inactive

Continued, starting with the last 3 of the part before.
no.	gene	dsRNA	firefly Hh reporter signal, replicate 1	firefly Hh reporter signal, replicate 2	firefly Hh reporter signal, replicate 3	Renilla reference signal, replicate 1	Renilla reference signal, replicate 2	call
26	Mt2	DRSC03374	77525	52395		2040	4699	inactive
27	CG5645	DRSC10532	1.31e5	80259		4978	2964	inactive
28	Gbp3	DRSC15206	5.50e5	73508		28490	2520	inactive
29	CG5235	DRSC10494	1.38e5			6266	3915	inactive
30	Or69a	DRSC11243	41505	35040	48180	3240	3297	inactive
31	msl-2	DRSC00829	99941	66480		4933	2912	inactive
32	CG14185	DRSC10184	84461	1.30e5		2909	3314	inactive
33	CG13992	DRSC02324	85216	54470		2282	5360	inactive
34	Ten-m	DRSC11664	1.09e5	1.19e5		3355	3418	inactive
35	Ten-m	DRSC11882	93971	99417		2633	2869	inactive
36	TfIIFbeta	DRSC16884	1.14e5	2.36e5		3475	5712	inactive
37	DIP-alpha	DRSC17891	6.47e5	98996		3913	3913	inactive
38	DIP-alpha	DRSC17892	51872	40099		683	1753	inactive
39	Ugt316A1	DRSC10376	67712	1.00e5		2520	3090	inactive
40	CG10993	DRSC19362	1.51e5	2.64e5		4858	9963	inactive
41	CG33453	DRSC05782	96022	2.30e5		2653	8742	inactive
42	CG13049	DRSC09930	1.53e5			7560	4292	inactive
43	cGlr1	DRSC06270	73219	48883		870	3309	inactive
44	CG15614	DRSC06567	84426	48230		2189	3169	inactive
45	CG14115	DRSC10118	58009	49800	44360	3531	2756	inactive
46	dpr16	DRSC12217	86864	1.16e5		3789	3356	inactive
47	dpr16	DRSC12249	5.19e5	96296		3397	3397	inactive
48	pyr	DRSC06319	1.52e5	3.71e5	94080	3624	3540	inactive
49	CG14624	DRSC18634	70704	1.53e5		1876	5416	inactive
50	Pur-alpha	DRSC17166	1.43e5	1.19e5		2733	3589	inactive
51	CG10863	DRSC08145	1.24e5	1.38e5		4340	4211	inactive
52	SdhBL	DRSC20039	63757	2.49e5		1638	9904	inactive
53	gNacalpha	DRSC00654	1.01e5	1.02e5		2595	2475	inactive
54	CG1172	DRSC12182	1.08e5	2.25e5		4024	6453	inactive
55	mTor	DRSC02811	71763	42246		2681	1936	inactive
56	pncr004:X (retired record)	DRSC19295	5.35e5	3.32e5		33259	7964	inactive
57	rk	DRSC03602	1.32e5	55673		3283	5157	inactive
